These are yes or no findings as the source states them, for the method shown. In cells and extracts the contact can be indirect. Some results given as binding are weak or reduced against the parent protein; the word gives no strength.
Tests used:
[1] = molecular target: N-terminal FLAG-tagged DPY-30 construct (in pT7CFE1 vector) (UniProt Q9C005); assay: co-immunoprecipitation of in vitro translated proteins with anti-HA gel, anti-FLAG western blot; only R2R1 and DPY-30 in the mixture (lane 2)
[2] = molecular target: N-terminal FLAG-tagged RNF2 construct (in pT7CFE1 vector) (UniProt Q99496); assay: co-immunoprecipitation of in vitro translated proteins with anti-HA gel, anti-FLAG western blot; other FLAG-tagged PcG/TrxG proteins present

Sequences of proteins named here, by UniProt entry; tags and fusion partners are left off.
UniProt Q9C005: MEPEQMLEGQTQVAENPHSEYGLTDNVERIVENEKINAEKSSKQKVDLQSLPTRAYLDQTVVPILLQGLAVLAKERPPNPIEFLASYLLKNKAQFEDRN
UniProt Q99496: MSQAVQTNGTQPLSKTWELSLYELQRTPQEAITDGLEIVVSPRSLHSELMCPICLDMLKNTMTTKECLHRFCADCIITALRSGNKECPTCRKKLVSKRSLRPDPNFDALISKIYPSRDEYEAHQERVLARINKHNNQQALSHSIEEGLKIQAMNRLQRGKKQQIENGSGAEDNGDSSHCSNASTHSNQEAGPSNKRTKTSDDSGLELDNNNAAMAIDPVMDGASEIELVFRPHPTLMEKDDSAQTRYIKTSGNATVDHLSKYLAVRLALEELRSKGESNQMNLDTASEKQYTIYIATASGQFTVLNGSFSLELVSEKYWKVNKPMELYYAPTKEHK
UniProt B3EWG3: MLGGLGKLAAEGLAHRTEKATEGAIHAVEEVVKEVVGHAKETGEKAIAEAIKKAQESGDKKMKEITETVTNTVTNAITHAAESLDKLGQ

binding [1]: binds | binding [2]: binds
Substance: N-terminal HA-tagged R2R1 construct (in pT7CFE1 vector) (from UniProt B3EWG3 1-89)
